From publication PMC7975690
These are yes or no findings as the source states them, for the method shown. In cells and extracts the contact can be indirect. A yes stands for co-enrichment or nearness to the bait. Other partners may have been found.

The chains behind the UniProt entries cited, without tags or fusion partners. Residues count along the entry.
UniProt P35222: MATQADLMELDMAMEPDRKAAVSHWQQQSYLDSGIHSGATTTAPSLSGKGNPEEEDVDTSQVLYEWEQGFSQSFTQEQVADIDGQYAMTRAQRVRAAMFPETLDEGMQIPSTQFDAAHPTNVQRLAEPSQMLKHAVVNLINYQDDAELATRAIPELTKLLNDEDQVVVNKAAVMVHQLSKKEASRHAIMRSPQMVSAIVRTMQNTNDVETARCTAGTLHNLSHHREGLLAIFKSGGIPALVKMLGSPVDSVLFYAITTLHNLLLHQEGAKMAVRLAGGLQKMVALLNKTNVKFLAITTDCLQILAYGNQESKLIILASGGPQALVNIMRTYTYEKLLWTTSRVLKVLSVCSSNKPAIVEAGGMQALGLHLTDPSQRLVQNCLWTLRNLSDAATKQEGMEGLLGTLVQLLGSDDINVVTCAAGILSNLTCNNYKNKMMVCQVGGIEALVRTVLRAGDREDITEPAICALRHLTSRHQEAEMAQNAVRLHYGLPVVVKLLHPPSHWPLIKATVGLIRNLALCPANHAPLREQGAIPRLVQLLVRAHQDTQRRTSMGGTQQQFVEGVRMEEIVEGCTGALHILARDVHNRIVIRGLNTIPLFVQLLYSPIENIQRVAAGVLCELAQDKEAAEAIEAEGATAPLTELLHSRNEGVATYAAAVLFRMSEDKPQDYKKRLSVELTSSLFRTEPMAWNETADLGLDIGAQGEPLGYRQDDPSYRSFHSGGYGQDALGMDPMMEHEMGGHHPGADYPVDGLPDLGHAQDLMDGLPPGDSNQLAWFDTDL
UniProt Q12888: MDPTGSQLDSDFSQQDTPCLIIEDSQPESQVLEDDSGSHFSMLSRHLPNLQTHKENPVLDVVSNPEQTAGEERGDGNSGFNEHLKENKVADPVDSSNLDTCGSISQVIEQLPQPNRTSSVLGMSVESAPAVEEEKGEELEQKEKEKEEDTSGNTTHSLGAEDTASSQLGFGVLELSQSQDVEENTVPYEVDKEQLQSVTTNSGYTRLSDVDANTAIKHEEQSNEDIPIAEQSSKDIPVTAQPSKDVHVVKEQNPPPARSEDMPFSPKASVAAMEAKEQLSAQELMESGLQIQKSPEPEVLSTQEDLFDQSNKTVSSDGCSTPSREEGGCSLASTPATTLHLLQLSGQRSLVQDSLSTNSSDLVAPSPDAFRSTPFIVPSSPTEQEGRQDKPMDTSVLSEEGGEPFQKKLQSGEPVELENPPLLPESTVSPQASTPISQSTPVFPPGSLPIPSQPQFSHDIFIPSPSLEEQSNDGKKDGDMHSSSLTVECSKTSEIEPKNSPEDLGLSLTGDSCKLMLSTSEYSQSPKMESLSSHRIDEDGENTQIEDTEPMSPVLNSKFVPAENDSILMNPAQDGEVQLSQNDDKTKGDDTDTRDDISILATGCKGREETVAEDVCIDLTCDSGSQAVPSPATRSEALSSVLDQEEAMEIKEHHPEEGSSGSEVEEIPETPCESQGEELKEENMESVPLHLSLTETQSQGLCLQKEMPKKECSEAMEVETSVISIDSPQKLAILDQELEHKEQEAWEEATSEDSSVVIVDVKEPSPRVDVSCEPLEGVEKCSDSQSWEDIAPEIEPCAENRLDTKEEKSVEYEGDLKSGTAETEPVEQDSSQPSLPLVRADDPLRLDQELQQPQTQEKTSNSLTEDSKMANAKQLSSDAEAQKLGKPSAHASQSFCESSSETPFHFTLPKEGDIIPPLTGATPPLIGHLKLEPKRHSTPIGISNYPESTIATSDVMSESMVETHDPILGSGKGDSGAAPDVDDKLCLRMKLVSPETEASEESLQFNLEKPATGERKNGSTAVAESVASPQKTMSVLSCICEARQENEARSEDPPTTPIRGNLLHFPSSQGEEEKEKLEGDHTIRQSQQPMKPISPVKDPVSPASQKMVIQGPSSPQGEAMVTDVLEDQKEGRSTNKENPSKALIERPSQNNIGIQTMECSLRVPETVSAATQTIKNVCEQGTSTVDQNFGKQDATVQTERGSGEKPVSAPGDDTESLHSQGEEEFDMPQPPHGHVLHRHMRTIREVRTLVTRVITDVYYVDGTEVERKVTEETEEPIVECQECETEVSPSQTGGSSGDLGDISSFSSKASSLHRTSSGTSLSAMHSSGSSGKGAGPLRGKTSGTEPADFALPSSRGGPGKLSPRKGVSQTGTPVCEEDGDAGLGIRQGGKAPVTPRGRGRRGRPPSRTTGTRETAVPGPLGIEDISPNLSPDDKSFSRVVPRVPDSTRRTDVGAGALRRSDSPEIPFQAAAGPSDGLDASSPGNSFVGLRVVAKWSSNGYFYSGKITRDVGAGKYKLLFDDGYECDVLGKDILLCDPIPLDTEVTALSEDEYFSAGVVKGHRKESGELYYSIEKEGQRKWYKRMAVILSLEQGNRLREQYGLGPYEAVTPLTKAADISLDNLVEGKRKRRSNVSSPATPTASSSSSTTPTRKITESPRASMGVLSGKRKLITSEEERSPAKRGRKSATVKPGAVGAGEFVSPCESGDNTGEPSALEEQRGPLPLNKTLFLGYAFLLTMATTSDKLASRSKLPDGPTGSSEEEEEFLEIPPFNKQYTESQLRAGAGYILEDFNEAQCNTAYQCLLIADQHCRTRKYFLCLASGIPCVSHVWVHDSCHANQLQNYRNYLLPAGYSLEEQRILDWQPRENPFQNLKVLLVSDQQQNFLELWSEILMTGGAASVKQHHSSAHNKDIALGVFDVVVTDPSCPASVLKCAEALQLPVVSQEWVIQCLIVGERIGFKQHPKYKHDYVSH
UniProt P40199, residues 35-320: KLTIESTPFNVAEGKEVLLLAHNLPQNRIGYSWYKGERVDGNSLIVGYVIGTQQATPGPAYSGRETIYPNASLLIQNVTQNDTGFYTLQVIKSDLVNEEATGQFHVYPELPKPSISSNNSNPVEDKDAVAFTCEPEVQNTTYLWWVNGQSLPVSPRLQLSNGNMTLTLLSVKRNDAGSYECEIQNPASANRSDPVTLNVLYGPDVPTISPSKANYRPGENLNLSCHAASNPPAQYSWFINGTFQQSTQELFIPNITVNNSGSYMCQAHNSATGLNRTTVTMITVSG
UniProt O75197, residues 32-1615: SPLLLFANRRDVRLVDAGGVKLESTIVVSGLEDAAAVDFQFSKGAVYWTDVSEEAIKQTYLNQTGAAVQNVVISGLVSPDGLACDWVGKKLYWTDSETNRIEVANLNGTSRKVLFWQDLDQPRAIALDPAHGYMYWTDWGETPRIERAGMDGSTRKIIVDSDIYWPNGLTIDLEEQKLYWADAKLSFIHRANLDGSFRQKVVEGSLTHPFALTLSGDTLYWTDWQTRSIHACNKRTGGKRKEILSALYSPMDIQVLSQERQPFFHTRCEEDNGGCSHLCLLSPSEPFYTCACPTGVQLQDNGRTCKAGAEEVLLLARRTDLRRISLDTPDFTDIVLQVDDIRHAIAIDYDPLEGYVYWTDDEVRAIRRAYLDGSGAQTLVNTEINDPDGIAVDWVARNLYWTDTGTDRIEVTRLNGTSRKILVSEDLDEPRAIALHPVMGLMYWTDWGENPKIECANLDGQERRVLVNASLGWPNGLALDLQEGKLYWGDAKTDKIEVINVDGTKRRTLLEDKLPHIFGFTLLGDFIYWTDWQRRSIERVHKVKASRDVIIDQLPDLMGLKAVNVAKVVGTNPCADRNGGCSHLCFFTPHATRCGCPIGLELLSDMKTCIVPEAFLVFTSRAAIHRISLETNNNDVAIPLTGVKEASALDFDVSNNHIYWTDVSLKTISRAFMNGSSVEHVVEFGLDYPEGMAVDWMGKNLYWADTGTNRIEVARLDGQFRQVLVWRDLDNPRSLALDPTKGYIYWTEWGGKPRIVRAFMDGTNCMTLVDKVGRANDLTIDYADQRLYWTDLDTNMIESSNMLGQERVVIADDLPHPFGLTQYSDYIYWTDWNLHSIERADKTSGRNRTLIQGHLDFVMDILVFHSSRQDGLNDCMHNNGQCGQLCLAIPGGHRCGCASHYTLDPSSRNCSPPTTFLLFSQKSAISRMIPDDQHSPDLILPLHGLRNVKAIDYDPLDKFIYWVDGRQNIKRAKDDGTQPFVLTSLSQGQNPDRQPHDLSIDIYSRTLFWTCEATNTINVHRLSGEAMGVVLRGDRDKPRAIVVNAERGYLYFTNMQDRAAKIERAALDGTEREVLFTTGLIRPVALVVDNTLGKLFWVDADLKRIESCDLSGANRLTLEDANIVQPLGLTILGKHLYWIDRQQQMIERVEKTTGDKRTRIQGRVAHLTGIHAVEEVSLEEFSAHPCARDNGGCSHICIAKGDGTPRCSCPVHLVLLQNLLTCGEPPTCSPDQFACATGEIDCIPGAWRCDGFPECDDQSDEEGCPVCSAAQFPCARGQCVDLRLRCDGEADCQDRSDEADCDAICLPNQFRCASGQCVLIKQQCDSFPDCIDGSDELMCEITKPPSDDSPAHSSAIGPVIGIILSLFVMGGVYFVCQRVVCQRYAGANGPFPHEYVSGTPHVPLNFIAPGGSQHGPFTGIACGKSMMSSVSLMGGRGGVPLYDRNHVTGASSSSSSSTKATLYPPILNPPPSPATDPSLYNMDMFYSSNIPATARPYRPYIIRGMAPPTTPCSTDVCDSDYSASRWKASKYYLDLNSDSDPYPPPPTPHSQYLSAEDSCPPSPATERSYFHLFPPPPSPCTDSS
UniProt P01137, residues 279-390: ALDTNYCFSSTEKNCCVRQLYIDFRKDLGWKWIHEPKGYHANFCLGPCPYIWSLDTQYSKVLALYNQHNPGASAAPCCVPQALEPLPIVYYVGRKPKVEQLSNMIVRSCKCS

T1: CD151 (human (endogenous in HT29)) (UniProt P48509)
T1 sequence: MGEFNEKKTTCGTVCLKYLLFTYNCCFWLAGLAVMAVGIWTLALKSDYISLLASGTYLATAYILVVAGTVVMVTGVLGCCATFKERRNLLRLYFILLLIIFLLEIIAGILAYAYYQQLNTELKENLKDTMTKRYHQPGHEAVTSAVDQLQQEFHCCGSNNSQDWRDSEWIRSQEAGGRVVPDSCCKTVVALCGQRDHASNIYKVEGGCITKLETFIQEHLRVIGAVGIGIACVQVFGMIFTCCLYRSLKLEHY


biological target: T1, CD151 (human (endogenous in HT29)); assay: affinity purification with mass spectrometry; HT29 whole cell extract (25 mM Tris, 150 mM NaCl, 1 mM EDTA, 1% NP-40, 5% glycerol, pH 7.4) immunoprecipitated with anti-CD151 antibody or control normal mouse IgG plus protein A Sepharose overnight at 4 °C; gel bands digested and analysed by mass spectrometry

| Molecule | binding |
| --- | --- |
| CTNB1 (from UniProt P35222 1-781) | binds |
| TP53BP1 (from UniProt Q12888 1-1972) | binds |
| carcinoembryonic antigen-related cell adhesion molecule 6 (CEACAM6) (from UniProt P40199 35-320) | binds |
| low-density lipoprotein receptor-related protein (LRP) 5 (LRP5) (from UniProt O75197 32-1615) | binds |
| transforming growth factor β1 (TGFβ1) (from UniProt P01137 279-390) | binds |

biological target: T1, CD151 (human (endogenous in HT29)); assay: as above; remark: another data set of the same source

| Molecule | binding |
| --- | --- |
| leucine-rich repeat-containing G-protein coupled receptor 5 (LGR5) (receptor, UniProt O75473 22-907) GSSPRSGVLLRGCPTHCHCEPDGRMLLRVDCSDLGLSELPSNLSVFTSYLDLSMNNISQLLPNPLPSLRFLEELRLAGNALTYIPKGAFTGLYSLKVLMLQNNQLRHVPTEALQNLRSLQSLRLDANHISYVPPSCFSGLHSLRHLWLDDNALTEIPVQAFRSLSALQAMTLALNKIHHIPDYAFGNLSSLVVLHLHNNRIHSLGKKCFDGLHSLETLDLNYNNLDEFPTAIRTLSNLKELGFHSNNIRSIPEKAFVGNPSLITIHFYDNPIQFVGRSAFQHLPELRTLTLNGASQITEFPDLTGTANLESLTLTGAQISSLPQTVCNQLPNLQVLDLSYNLLEDLPSFSVCQKLQKIDLRHNEIYEIKVDTFQQLLSLRSLNLAWNKIAIIHPNAFSTLPSLIKLDLSSNLLSSFPITGLHGLTHLKLTGNHALQSLISSENFPELKVIEMPYAYQCCAFGVCENAYKISNQWNKGDNSSMDDLHKKDAGMFQAQDERDLEDFLLDFEEDLKALHSVQCSPSPGPFKPCEHLLDGWLIRIGVWTIAVLALTCNALVTSTVFRSPLYISPIKLLIGVIAAVNMLTGVSSAVLAGVDAFTFGSFARHGAWWENGVGCHVIGFLSIFASESSVFLLTLAALERGFSVKYSAKFETKAPFSSLKVIILLCALLALTMAAVPLLGGSKYGASPLCLPLPFGEPSTMGYMVALILLNSLCFLMMTIAYTKLYCNLDKGDLENIWDCSMVKHIALLLFTNCILNCPVAFLSFSSLINLTFISPEVIKFILLVVVPLPACLNPLLYILFNPHFKEDLVSLRKQTYVWTRSKHPSLMSINSDDVEKQSCDSTQALVTFTSSSITYDLPPSSVPSPAYPVTESCHLSSVAFVPCL | binds |
